{"source": "the supplement of paper PMC8728848", "binders": {"B1": {"name": "CcfD (Bacteroides vulgatus), A6KYX8 (protein)", "chain": "MKYKNYFKSIIYLALGAFTLGSCEDFLDRQEDEKLTFDKIWESRNTTQQYWLNAMSFLPNENGSLQGDTEPYLGASDECTIAYDRQYRWINFGTWNPSQVPYYKMDHYYKGIRECNIFLQNVYKCSDPLVTKDQLDEWYWQTRFARAYYYFLMMRDYGPVFLLGDDLLDFTASTEELYRPRNTWDQCVNYVVSEMTQCAESGVVLQQSDLPAAKWGLATVGTCHAVISRLLLYSARPLFNGNKLYSTVKNPDAPDFPELSGVKLFPELDNTKWQKAAEAAKKLIDNPCYELYRAGNDNPYEDYYGVTHETWNKELIWTDRYNGLFSWGVGTVPTGVAGTAYGAVGPTQALVDAYAMNTGWYPITGYEADGTPIVEPLSGYELASELEKSSWIYPSGGWSNKADFEIEAPNMYKDREPRFYVTVFFGGNQWLHGNSATSISFAKGGNGNKSHDYPKSGYLCNRFYDHKLNSSEGQWGNITFPVFRLGEIYLNFIEAVLECKKNGVALDPSYEALAMEKWADLRKRAGLDPITSIYGQVSTEELIQLCRKERQIELAFERHRYFDTRTWMIATQTDNGKMYGMNTSCPLDAGMKGTETPDGFWERTAFETRVFQNKHYLYPFSQRELDRNKLLTQNYGW"}}, "test_in_all_cases": "glycan array binding signal (z-score within array); higher = stronger binding", "conditions_in_all_cases": "glycan notation: IUPAC condensed, linker removed", "key": {"[1]": {"target": "Gal3S(b1-3)[Fuc(a1-4)]GlcNAc", "in_short": "(§1)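 Columns mapping to the same glycan were averaged after glycan names were converted to IUPAC-condensed notation. The data come from 3228 arrays in the Consortium for Functional Glycomics database, limited to those with an available protein sequence. Binding is reported as a within-array Z-score averaged across arrays of one protein sequence and across linkers.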"}, "[2]": {"target": "Gal3S(b1-4)Glc", "in_short": "as §1"}, "[3]": {"target": "Gal3S(b1-4)Glc6S", "in_short": "as §1"}, "[4]": {"target": "Gal3S(b1-4)GlcNAc", "in_short": "as §1"}, "[5]": {"target": "Gal3S(b1-4)[Fuc(a1-3)]Glc6S", "in_short": "as §1"}, "[6]": {"target": "Gal3S(b1-4)[Fuc(a1-3)]GlcNAc", "in_short": "as §1"}, "[7]": {"target": "Gal3S(b1-4)[Fuc(a1-3)]GlcNAc6S", "in_short": "as §1"}, "[8]": {"target": "Gal3S4S(b1-4)GlcNAc", "in_short": "as §1"}, "[9]": {"target": "Gal3S6S(b1-4)GlcNAc", "in_short": "as §1"}, "[10]": {"target": "Gal3S6S(b1-4)GlcNAc6S", "in_short": "as §1"}, "[11]": {"target": "Gal4S(b1-4)GlcNAc", "in_short": "as §1"}, "[12]": {"target": "Gal4S6S(b1-4)GlcNAc", "in_short": "as §1"}, "[13]": {"target": "Gal6P(b1-4)GlcNAc", "in_short": "as §1"}, "[14]": {"target": "Gal6S(b1-3)GlcNAc", "in_short": "as §1"}, "[15]": {"target": "Gal6S(b1-3)GlcNAc6S", "in_short": "as §1"}, "[16]": {"target": "Gal6S(b1-4)Glc", "in_short": "as §1"}, "[17]": {"target": "Gal6S(b1-4)Glc6S", "in_short": "as §1"}, "[18]": {"target": "Gal6S(b1-4)GlcNAc", "in_short": "as §1"}, "[19]": {"target": "Gal6S(b1-4)GlcNAc6S", "in_short": "as §1"}, "[20]": {"target": "GalNAc(a1-3)Gal", "in_short": "as §1"}, "[21]": {"target": "GalNAc(a1-3)GalNAc", "in_short": "as §1"}, "[22]": {"target": "GalNAc(a1-3)GalNAc(b1-3)Gal(a1-4)Gal(b1-4)Glc", "in_short": "as §1"}, "[23]": {"target": "GalNAc(a1-3)GalNAc(b1-3)Gal(a1-4)Gal(b1-4)GlcNAc", "in_short": "as §1"}, "[24]": {"target": "GalNAc(b1-3)Gal", "in_short": "as §1"}, "[25]": {"target": "GalNAc(b1-3)Gal(a1-4)Gal(b1-4)GlcNAc", "in_short": "as §1"}, "[26]": {"target": "GalNAc(b1-3)Gal(a1-4)Gal(b1-4)GlcNAc(b1-3)Gal(b1-4)Glc", "in_short": "as §1"}, "[27]": {"target": "GalNAc(b1-3)Gal(a1-6)Gal(b1-4)Glc", "in_short": "as §1"}, "[28]": {"target": "GalNAc(b1-3)GalNAc", "in_short": "as §1"}, "[29]": {"target": "GalNAc(b1-3)GlcNAc", "in_short": "as §1"}, "[30]": {"target": "GalNAc(b1-4)Gal(b1-4)Glc", "in_short": "as §1"}}, "note": "The other results are listed elsewhere or left out.", "data": [{"binder": "B1", "values": [{"measurement": "glycan array binding signal (z-score)", "setting": "[1]", "result": 1.02}, {"measurement": "glycan array binding signal (z-score)", "setting": "[2]", "result": 1.22}, {"measurement": "glycan array binding signal (z-score)", "setting": "[3]", "result": -0.172}, {"measurement": "glycan array binding signal (z-score)", "setting": "[4]", "result": 0.519}, {"measurement": "glycan array binding signal (z-score)", "setting": "[5]", "result": 0.298}, {"measurement": "glycan array binding signal (z-score)", "setting": "[6]", "result": -0.317}, {"measurement": "glycan array binding signal (z-score)", "setting": "[7]", "result": 0.595}, {"measurement": "glycan array binding signal (z-score)", "setting": "[8]", "result": 0.003}, {"measurement": "glycan array binding signal (z-score)", "setting": "[9]", "result": 1.03}, {"measurement": "glycan array binding signal (z-score)", "setting": "[10]", "result": 2.22}, {"measurement": "glycan array binding signal (z-score)", "setting": "[11]", "result": 0.694}, {"measurement": "glycan array binding signal (z-score)", "setting": "[12]", "result": -0.282}, {"measurement": "glycan array binding signal (z-score)", "setting": "[13]", "result": -0.653}, {"measurement": "glycan array binding signal (z-score)", "setting": "[14]", "result": 1.23}, {"measurement": "glycan array binding signal (z-score)", "setting": "[15]", "result": 1.13}, {"measurement": "glycan array binding signal (z-score)", "setting": "[16]", "result": 0.254}, {"measurement": "glycan array binding signal (z-score)", "setting": "[17]", "result": -1.04}, {"measurement": "glycan array binding signal (z-score)", "setting": "[18]", "result": 1.51}, {"measurement": "glycan array binding signal (z-score)", "setting": "[19]", "result": 0.186}, {"measurement": "glycan array binding signal (z-score)", "setting": "[20]", "result": 0.287}, {"measurement": "glycan array binding signal (z-score)", "setting": "[21]", "result": -1.07}, {"measurement": "glycan array binding signal (z-score)", "setting": "[22]", "result": 0.191}, {"measurement": "glycan array binding signal (z-score)", "setting": "[23]", "result": 1.65}, {"measurement": "glycan array binding signal (z-score)", "setting": "[24]", "result": -0.404}, {"measurement": "glycan array binding signal (z-score)", "setting": "[25]", "result": 0.125}, {"measurement": "glycan array binding signal (z-score)", "setting": "[26]", "result": -0.52}, {"measurement": "glycan array binding signal (z-score)", "setting": "[27]", "result": -0.978}, {"measurement": "glycan array binding signal (z-score)", "setting": "[28]", "result": -0.805}, {"measurement": "glycan array binding signal (z-score)", "setting": "[29]", "result": -0.241}, {"measurement": "glycan array binding signal (z-score)", "setting": "[30]", "result": -0.043}]}]}
